# Results taken from PubChem BioAssay AID2685 (National Center for Advancing Translational Sciences (NCATS), 2010).
# The list shows a part of the results. These are further read-outs of the screen, such as a control signal, another cell line or another target. No call is given for them. The list favours compounds with an active or inconclusive main result. Words in brackets tell the shape of the fitted curve; partial curves, single points and poor fits give uncertain potencies.
# Test: qHTS Assay for Lipid Storage Modulators in Drosophila S3 Cells;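 as to cell number change: cells counted by Cell Tracker Red CMTPX staining in the red channel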
# Conditions: BODIPY lipid droplet fluorescence, 18-24 h; for cell number change: measured here: cell count max response, cells fed with added oleic acid
# Summary of the method: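 Drosophila S3 cells loaded with oleic acid (400 uM, as added) and compounds at several concentrations; lipid droplets imaged by 488-nm laser-scanning cytometry, 500–530 nm intensity and object ratio to cell channel. Percent activity normalized to 20 uM Triacsin C.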
# [1] = measured here: lipid fluorescence (Fed channel) AC50, cells fed with added oleic acid
# [2] = measured here: cell number channel AC50, cells fed with added oleic acid
SMILES,AC50 [1],cell number change [%],AC50 [2]
CCc1ccccc1NC(=O)CN(c1ccc(OC)cc1OC)S(=O)(=O)c1ccccc1,"20.6 µM [falling, single point]",,
NNCCc1ccccc1,"8.2 µM [rising, partial curve, poor fit]",4.15,
COc1cccc(C(=O)O[C@H]2[C@H](C)NS(=O)(=O)[C@H]3C[C@@H]4C=C[C@]23O4)c1,,-20.2,"0.82 µM [rising, single point]"
COc1cc(C(=O)NCC2(c3ccccc3)CCCC2)cc(OC)c1OC,"29.1 µM [falling, single point]",-28,
O=C(C1CCCC1)N1CCCC(Nc2ccccc2)C1 (centres undefined),"6.51 µM [rising, full curve, poor fit]",5.28,
CCOC(=O)c1ccccc1NC(=O)Cc1sc(-c2cccnc2)nc1-c1ccc(C)cc1,"1.84 µM [rising, partial curve, poor fit]",20.4,
CCCCc1nc2n[nH]c(N)c2c2c1CCC2,,35.9,"3.26 µM [rising, full curve]"
O=C(CCC1N=C2c3ccccc3N=C(SCc3cccc(Cl)c3)N2C1=O)NCc1ccco1 (centres undefined),"29.1 µM [falling, single point]",-20.4,
COc1ccc(-n2nc(C(=O)NCC(=O)Nc3cc(OC)c(OC)c(OC)c3)c3ccccc3c2=O)cc1Cl,,142,"20.6 µM [rising, partial curve]"
CCOc1ccccc1NC(=O)/C(C#N)=C/c1cccnc1,"0.58 µM [rising, single point]",-9.9,
O=C(CSc1nc2c(c(C(F)(F)F)n1)CCc1ccccc1-2)NCc1ccco1,"0.082 µM [rising, single point]",27.3,"3.26 µM [rising, full curve, poor fit]"
CC1CC(=O)N(c2ccc(N(C)Cc3ccccc3)c([N+](=O)[O-])c2)C1=O (centres undefined),"2.06 µM [falling, partial curve]",-49.3,"29.1 µM [falling, single point]"
O=C1Cc2cc(NS(=O)(=O)c3ccc(F)cc3)cc3c2N1CCC3,"0.116 µM [rising, full curve, poor fit]",,
CCOC(=O)N1CCN(C(=O)C(=O)Nc2sc3c(c2C(=O)O)CC(C)(C)OC3)CC1,"1.84 µM [rising, partial curve, poor fit]",-14.3,
Fc1ccc(CN2C3=NCCCN3c3ccccc32)cc1,"0.082 µM [rising, full curve, poor fit]",,"0.00517 µM [rising, full curve, poor fit]"
COc1ccc(CC(=O)N2CCN(S(=O)(=O)c3cc(Cl)ccc3Cl)CC2)cc1,"0.103 µM [rising, partial curve, poor fit]",-0.251,
Cc1ccc(-c2nc3ncccc3o2)cc1NC(=S)NC(=O)c1ccco1,,21.2,
Cn1c(N)c(S(=O)(=O)NCc2ccc(Cl)cc2)c(=O)n(C)c1=O,"0.103 µM [falling, full curve, poor fit]",,"7.31 µM [falling, partial curve, poor fit]"
COc1cc(C(=O)Nc2nc3ccc(S(=O)(=O)N4CCOCC4)cc3s2)cc(OC)c1OC,"6.51 µM [falling, single point]",,
CCNC(=O)n1cc(-n2cncn2)c(-c2ccccc2)n1,"6.51 µM [falling, single point]",-20,"6.51 µM [falling, single point]"

# An excerpt of these results, bar-delimited.
SMILES | AC50 [1] | cell number change [%] | AC50 [2]
CCc1ccccc1NC(=O)CN(c1ccc(OC)cc1OC)S(=O)(=O)c1ccccc1 | 20.6 µM [falling, single point] |  | 
NNCCc1ccccc1 | 8.2 µM [rising, partial curve, poor fit] | 4.15 | 
COc1cccc(C(=O)O[C@H]2[C@H](C)NS(=O)(=O)[C@H]3C[C@@H]4C=C[C@]23O4)c1 |  | -20.2 | 0.82 µM [rising, single point]
COc1cc(C(=O)NCC2(c3ccccc3)CCCC2)cc(OC)c1OC | 29.1 µM [falling, single point] | -28 | 
O=C(C1CCCC1)N1CCCC(Nc2ccccc2)C1 (centres undefined) | 6.51 µM [rising, full curve, poor fit] | 5.28 | 
CCOC(=O)c1ccccc1NC(=O)Cc1sc(-c2cccnc2)nc1-c1ccc(C)cc1 | 1.84 µM [rising, partial curve, poor fit] | 20.4 | 
CCCCc1nc2n[nH]c(N)c2c2c1CCC2 |  | 35.9 | 3.26 µM [rising, full curve]
O=C(CCC1N=C2c3ccccc3N=C(SCc3cccc(Cl)c3)N2C1=O)NCc1ccco1 (centres undefined) | 29.1 µM [falling, single point] | -20.4 | 
COc1ccc(-n2nc(C(=O)NCC(=O)Nc3cc(OC)c(OC)c(OC)c3)c3ccccc3c2=O)cc1Cl |  | 142 | 20.6 µM [rising, partial curve]
CCOc1ccccc1NC(=O)/C(C#N)=C/c1cccnc1 | 0.58 µM [rising, single point] | -9.9 | 
O=C(CSc1nc2c(c(C(F)(F)F)n1)CCc1ccccc1-2)NCc1ccco1 | 0.082 µM [rising, single point] | 27.3 | 3.26 µM [rising, full curve, poor fit]
CC1CC(=O)N(c2ccc(N(C)Cc3ccccc3)c([N+](=O)[O-])c2)C1=O (centres undefined) | 2.06 µM [falling, partial curve] | -49.3 | 29.1 µM [falling, single point]
O=C1Cc2cc(NS(=O)(=O)c3ccc(F)cc3)cc3c2N1CCC3 | 0.116 µM [rising, full curve, poor fit] |  | 
CCOC(=O)N1CCN(C(=O)C(=O)Nc2sc3c(c2C(=O)O)CC(C)(C)OC3)CC1 | 1.84 µM [rising, partial curve, poor fit] | -14.3 | 
Fc1ccc(CN2C3=NCCCN3c3ccccc32)cc1 | 0.082 µM [rising, full curve, poor fit] |  | 0.00517 µM [rising, full curve, poor fit]
COc1ccc(CC(=O)N2CCN(S(=O)(=O)c3cc(Cl)ccc3Cl)CC2)cc1 | 0.103 µM [rising, partial curve, poor fit] | -0.251 | 
Cc1ccc(-c2nc3ncccc3o2)cc1NC(=S)NC(=O)c1ccco1 |  | 21.2 | 
Cn1c(N)c(S(=O)(=O)NCc2ccc(Cl)cc2)c(=O)n(C)c1=O | 0.103 µM [falling, full curve, poor fit] |  | 7.31 µM [falling, partial curve, poor fit]

# (list continues)

SMILES,AC50 [1],cell number change [%],AC50 [2]
COc1ccc(NC(=O)C/C(C)=N/NC(=O)c2ccco2)c([N+](=O)[O-])c1,,16.2,
Cc1cccc(C)c1NC(=O)CN(C)CC(=O)Nc1ccccc1Oc1ccccc1,,6.84,
NC(=O)c1ccccc1NC(=O)CCc1ccccc1,,10.2,"0.291 µM [rising, full curve, poor fit]"
COc1ccccc1CNC(=O)CSc1ncc(C(=O)Nc2ccccc2)c(=O)n1C,,9,
CCN(CC(=O)Nc1ccc(OC)cc1)C(=O)c1cc([N+](=O)[O-])ccc1N1CCOCC1,,38.7,"10.3 µM [rising, partial curve, poor fit]"
O=C(Nc1nccs1)C1CCN(S(=O)(=O)c2ccc3c(c2)OCCCO3)CC1,,91.3,"5.8 µM [rising, full curve]"
CN1CCN(CC(=O)N2CCn3c4c(c5cc(C6CCCCC6)ccc53)CCCC42)CC1 (centres undefined),"0.00461 µM [falling, full curve, poor fit]",-44.1,"32.6 µM [falling, single point]"
COc1cccc(OC)c1C(=O)Nc1c(C(=O)N2CCN(c3ccccn3)CC2)oc2ccccc12,"0.58 µM [rising, single point]",-8.22,
Cc1ccc(C(C)C)c(OCC(=O)NNC2=CC(=O)CC(C)(C)C2)c1,,-3.63,
CCC(=O)c1ccc(OCC(O)CN(CCc2ccccc2)Cc2ccccc2)cc1 (centres undefined),"1.46 µM [falling, partial curve]",-14.9,
CCCn1c(SCC(=O)N(C2CCCCC2)C2CCS(=O)(=O)C2)n[nH]c1=O (centres undefined),"0.13 µM [falling, full curve, poor fit]",-15.5,"5.8 µM [falling, partial curve, poor fit]"
Cc1ccc(NC(=O)CCNS(=O)(=O)c2cccs2)cc1F,"6.51 µM [falling, partial curve, poor fit]",,
Cn1cnnc1SCC(=O)Nc1c(F)cc(F)cc1Br,,-14.6,"0.92 µM [falling, full curve, poor fit]"
O=C(NCc1ccccc1Cl)C1CCC(=O)N1Cc1ccc(F)cc1 (centres undefined),,11.3,"0.82 µM [rising, single point]"
COc1ccc(NC(=O)c2ccc(-n3cccn3)nc2)cc1,,10.9,"3.66 µM [rising, single point]"
O=C(NCCCN1CCOCC1)c1ccc(S(=O)(=O)Nc2ccccc2F)cc1,,-4.98,
COc1ccc(C(CNC(=O)c2ccc3c(c2)C(=O)N(CCC(C)C)C3=O)N2CCOCC2)cc1 (centres undefined),"0.651 µM [rising, single point]",-7.78,
Cc1c(CCOC(=O)c2cc([N+](=O)[O-])ccc2Cl)sc[n+]1CCCCS(=O)(=O)[O-],,12,"0.13 µM [falling, full curve, poor fit]"
CC1(C)Cc2ccccc2C(C(Cc2ccccc2)C(N)=O)=N1 (centres undefined),,20.3,
CN(c1ccccc1C(=O)NC1CC2CCC1C2)S(=O)(=O)c1ccccc1 (centres undefined),"18.4 µM [falling, partial curve, poor fit]",-14.2,

SMILES,AC50 [1],cell number change [%],AC50 [2]
COc1ccc(/C(O)=C2/C(=O)C(=O)N(c3nc(C)c(C)s3)C2c2ccco2)cc1 (centres undefined),"1.16 µM [falling, full curve, poor fit]",5.49,
Cc1ccc(-c2noc(C3CCCN(C(=O)c4cccc(Cl)c4)C3)n2)o1 (centres undefined),,6.58,
O=C(Cc1cccc(C(F)(F)F)c1)Nc1ccccc1N1CCCC1,"35.5 µM [falling, single point]",,
O=C1CC(N2CCSCC2)C(=O)N1c1ccc(Br)cc1 (centres undefined),"4.11 µM [falling, single point]",4.16,
COc1ccc(N2CCN(Cc3cc(=O)oc4cc(-c5ccccc5)c(O)cc34)CC2)cc1,,-27,"0.82 µM [falling, full curve, poor fit]"
CN1CCN(C(=O)/C=C/c2ccc([N+](=O)[O-])o2)CC1,"23.1 µM [falling, partial curve, poor fit]",,
Nc1nc(-c2ccco2)nn1C(=O)c1ccc(Cl)cc1,"3.66 µM [falling, partial curve]",,
CCn1c(SCC(=O)NCc2ccccc2)nc2nc3c(cc2c1=O)CCCC3,"0.651 µM [falling, single point]",4.31,
COc1ccc(Nc2oc(COc3cccc(C)c3)nc2C#N)cc1,"3.26 µM [rising, partial curve]",,
Cc1ccsc1C(=O)OCC(=O)NCCCc1ccccc1,"0.0411 µM [rising, partial curve, poor fit]",27.3,
C/C(=N\NC(=O)c1cc(C)nc2ccc(C)cc12)c1ccncc1,"29.1 µM [rising, single point]",-21.3,
CCN(Cc1nc2ccccc2c(=O)[nH]1)C(=O)c1cccc(NC(=O)c2cccs2)c1,"0.731 µM [rising, partial curve]",15.5,
CCN(CC(=O)Nc1c(F)cccc1F)C(=O)C1CC1,"0.731 µM [rising, full curve]",-8.45,
CC1CCCC(C)N1/N=C/c1cccc(Br)c1 (centres undefined),,-32.9,"29.1 µM [falling, single point]"
CCOC(=O)C1=C(N)n2c(s/c(=C\c3ccncc3)c2=O)=C(C(=O)OCC)C1c1ccncc1 (centres undefined),"4.11 µM [rising, partial curve, poor fit]",1.38,
CCNC(=O)CC1C(=O)N(c2cccc(OC)c2)C(=O)N1CCOC (centres undefined),"0.00731 µM [falling, full curve, poor fit]",-17.4,
Cc1ccnc(NC(=O)CSc2ccc3c(c2)OCCO3)c1,"6.51 µM [falling, single point]",28.7,
O=[N+]([O-])c1cccc(-n2cc3ccc([N+](=O)[O-])cc3n2)c1,"0.164 µM [falling, full curve, poor fit]",-7.42,"0.58 µM [rising, single point]"
CC(OC(=O)c1cccc(-n2cnnn2)c1)C(=O)N(C)c1ccccc1 (centres undefined),"11.6 µM [falling, partial curve]",-35.2,"14.6 µM [falling, single point]"
